Assay results as given in patent US20050065099A1, “Treatment of mitochondrial diseases” (priority 2003, published 2005).
Some of these results come from one statement about several compounds together. At least one compound was matched to its structure with a doubt left.

What was measured:
[1] = tested on: substantia nigra-derived dopaminergic progenitor cell line; assay: MPP+ cell death assay; type: cell-based; settings: 70 μM MPP+, 24 hours; compound concentrations ranging from 1 to 25 μM
[2] = tested on: dopaminergic neuronal cell line; assay: High glutamate-induced oxidative stress assay (HGOS); type: cell-based, mouse; settings: 30 mM glutamate, 16 hrs, Cell Tracker Green; read-out: EC50 for protection against HGOS cell injury and cell death
Source text: Protection against redox stress can be further evaluated in cell culture using high glutamate induced oxidative stress (HGOS) in mouse dopaminergic cell lines. The cytotoxic effect of glutamate is not due to excitotoxicity, as this cell line is devoid of inotropic glutamate receptors. Rather, the glutamate-induced toxicity of dopaminergic cells is associated with an inhibition of cystine transport which subsequently leads to depletion of intracellular glutathione (GSH) levels (Murphy T. H., et al. Neuron 2, 1547-1558, 1989), activation of neuronal 12-lipoxygenase (Li, Y. et al., Neuron 19,453-463, 1997), increased ROS production (Tan S. et al., J. Cell Biol. 141, 1423-1432, 1998) and elevated intracellular Ca^2+ (Li, Y. et al., see supra). Some molecules were measured for their ability to protect such cells against glutamate-induced stress and the assay is detailed in Examples.
This procedure was used to induce high glutamate-induced oxidative stress (HGOS) in a dopaminergic neuronal cell line. […]
The Beckman Biomek workstations were used to load the compounds and controls from the mother plates onto the cell plates that were prewashed with HBSS under sterile conditions. […] After washing the cells twice with prewarmed 1×HBSS, the plates were read with the 485 excitation; 538 emission filter pair on a Fluoroskan.

Compound	protection of the cells tested [1]	EC50 [2]
CC1(C)CCc2cc(O)c3c(c2O1)C1CCC3C1 (centres unmarked) [2,2,-Dimethyl-3,4,7,8,9,10-hexahydro-7,10-methano-2H-benzo[h]chromen-6-ol]	at least 30%	
CC1(CCC(=O)O)CCc2cc(O)c3ccccc3c2O1 (centres unmarked) [3-(6-Hydroxy-2-methyl-3,4-dihydro-2H-benzo[h]chroman-2-yl)-propionic acid]		≤ 5 µM
